Results are given in words; binding and its absence hold for the method and conditions named. Binding seen in cells or lysates may run through a third protein. These calls come from enrichment with a bait or labelling near it, and not all partners need be listed.
Columns and labels:
Assay in all cases: proximity labelling
[1] = molecular target: N-terminal BioID2-tagged EBOV VP35 (Ebola virus (EBOV)) (UniProt Q05127)
[2] = molecular target: BioID2-tagged EBOV NP (N- and C-terminal tagged constructs) (Ebola virus (EBOV)) (UniProt P18272)
[3] = molecular target: BioID2-tagged EBOV VP24 (N- and C-terminal tagged constructs) (Ebola virus (EBOV)) (UniProt Q05322)
[4] = molecular target: N-terminal BioID2-tagged EBOV VP30 (Ebola virus (EBOV)) (UniProt Q05323)

Sequences of proteins named here, by UniProt entry; tags and fusion partners are left off.
UniProt Q05127: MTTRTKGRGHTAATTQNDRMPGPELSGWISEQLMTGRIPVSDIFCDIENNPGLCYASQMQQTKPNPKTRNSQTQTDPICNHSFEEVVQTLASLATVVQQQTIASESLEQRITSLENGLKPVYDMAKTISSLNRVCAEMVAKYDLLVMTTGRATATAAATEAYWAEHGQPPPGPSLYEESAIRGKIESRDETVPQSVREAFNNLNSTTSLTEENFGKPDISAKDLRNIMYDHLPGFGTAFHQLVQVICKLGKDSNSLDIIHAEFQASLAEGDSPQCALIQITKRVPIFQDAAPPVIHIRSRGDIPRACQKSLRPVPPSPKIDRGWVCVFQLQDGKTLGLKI
UniProt Q05322: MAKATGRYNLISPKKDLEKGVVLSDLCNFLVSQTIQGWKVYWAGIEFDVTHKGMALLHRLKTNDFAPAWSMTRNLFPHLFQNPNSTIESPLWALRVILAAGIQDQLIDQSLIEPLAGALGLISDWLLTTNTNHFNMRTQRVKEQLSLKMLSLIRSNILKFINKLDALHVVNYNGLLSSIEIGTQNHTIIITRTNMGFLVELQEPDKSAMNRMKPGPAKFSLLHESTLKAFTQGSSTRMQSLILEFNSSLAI
UniProt Q05323: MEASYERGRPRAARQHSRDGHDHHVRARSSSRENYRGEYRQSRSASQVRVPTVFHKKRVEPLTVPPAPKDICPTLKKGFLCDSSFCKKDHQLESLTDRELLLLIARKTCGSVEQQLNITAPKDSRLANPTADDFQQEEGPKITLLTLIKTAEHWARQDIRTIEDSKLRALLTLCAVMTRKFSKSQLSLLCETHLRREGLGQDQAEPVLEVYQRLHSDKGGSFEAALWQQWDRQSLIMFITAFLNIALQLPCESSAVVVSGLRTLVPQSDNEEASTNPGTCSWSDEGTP
UniProt Q8ND56: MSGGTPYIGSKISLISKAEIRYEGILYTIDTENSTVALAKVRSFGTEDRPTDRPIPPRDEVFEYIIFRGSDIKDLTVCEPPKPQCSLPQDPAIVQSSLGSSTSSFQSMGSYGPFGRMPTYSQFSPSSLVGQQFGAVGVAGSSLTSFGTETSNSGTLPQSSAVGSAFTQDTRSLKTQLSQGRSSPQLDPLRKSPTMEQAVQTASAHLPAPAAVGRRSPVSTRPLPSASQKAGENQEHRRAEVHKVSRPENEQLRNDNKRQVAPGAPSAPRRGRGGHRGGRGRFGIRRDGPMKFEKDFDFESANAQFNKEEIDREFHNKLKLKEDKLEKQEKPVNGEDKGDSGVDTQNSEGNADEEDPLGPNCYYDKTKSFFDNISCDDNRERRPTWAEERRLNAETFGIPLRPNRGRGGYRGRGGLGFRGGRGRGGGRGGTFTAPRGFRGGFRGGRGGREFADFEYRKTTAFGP
UniProt Q9Y4F3: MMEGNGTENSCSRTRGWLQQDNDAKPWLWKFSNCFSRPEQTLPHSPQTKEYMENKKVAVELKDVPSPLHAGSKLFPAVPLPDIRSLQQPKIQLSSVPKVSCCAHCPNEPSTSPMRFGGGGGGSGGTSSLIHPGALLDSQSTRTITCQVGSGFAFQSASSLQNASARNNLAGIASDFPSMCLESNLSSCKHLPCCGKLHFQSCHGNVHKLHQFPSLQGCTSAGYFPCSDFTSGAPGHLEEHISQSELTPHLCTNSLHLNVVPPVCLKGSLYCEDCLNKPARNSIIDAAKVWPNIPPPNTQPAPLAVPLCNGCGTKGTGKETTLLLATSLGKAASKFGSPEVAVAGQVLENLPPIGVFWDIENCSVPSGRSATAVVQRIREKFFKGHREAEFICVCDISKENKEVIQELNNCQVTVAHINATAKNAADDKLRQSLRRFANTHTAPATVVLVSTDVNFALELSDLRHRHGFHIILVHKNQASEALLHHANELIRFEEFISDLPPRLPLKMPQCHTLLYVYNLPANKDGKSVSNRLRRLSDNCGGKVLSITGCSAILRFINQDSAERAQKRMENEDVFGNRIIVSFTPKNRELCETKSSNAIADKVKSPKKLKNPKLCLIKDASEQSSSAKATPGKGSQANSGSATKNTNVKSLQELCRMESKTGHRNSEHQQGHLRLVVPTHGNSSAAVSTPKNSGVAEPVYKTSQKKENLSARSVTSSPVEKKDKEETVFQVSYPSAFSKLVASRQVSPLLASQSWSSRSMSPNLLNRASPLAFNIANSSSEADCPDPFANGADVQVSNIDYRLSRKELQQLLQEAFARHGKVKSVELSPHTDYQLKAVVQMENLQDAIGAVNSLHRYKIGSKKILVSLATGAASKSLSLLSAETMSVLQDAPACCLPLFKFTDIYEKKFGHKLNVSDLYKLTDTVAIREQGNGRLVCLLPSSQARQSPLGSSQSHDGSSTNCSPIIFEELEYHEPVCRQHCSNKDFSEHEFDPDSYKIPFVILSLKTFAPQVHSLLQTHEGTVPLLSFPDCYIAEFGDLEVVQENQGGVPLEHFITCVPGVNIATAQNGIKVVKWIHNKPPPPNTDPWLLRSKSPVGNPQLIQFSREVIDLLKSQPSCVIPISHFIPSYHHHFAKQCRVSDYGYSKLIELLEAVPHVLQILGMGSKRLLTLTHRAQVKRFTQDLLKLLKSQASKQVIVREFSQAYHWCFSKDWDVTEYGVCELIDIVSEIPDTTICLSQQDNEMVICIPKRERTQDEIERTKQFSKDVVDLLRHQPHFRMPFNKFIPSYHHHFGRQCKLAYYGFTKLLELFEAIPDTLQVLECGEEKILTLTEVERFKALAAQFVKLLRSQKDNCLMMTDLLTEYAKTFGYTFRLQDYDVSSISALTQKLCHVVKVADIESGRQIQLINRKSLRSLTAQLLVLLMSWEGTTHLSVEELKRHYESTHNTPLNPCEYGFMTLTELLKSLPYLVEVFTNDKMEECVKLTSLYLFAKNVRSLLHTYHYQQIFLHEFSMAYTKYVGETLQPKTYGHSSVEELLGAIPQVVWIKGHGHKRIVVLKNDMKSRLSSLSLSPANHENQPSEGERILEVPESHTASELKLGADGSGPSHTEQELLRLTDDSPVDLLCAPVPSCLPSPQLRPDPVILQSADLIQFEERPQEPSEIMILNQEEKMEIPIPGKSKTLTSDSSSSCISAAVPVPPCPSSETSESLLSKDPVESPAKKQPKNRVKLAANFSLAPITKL
UniProt Q9BUI4: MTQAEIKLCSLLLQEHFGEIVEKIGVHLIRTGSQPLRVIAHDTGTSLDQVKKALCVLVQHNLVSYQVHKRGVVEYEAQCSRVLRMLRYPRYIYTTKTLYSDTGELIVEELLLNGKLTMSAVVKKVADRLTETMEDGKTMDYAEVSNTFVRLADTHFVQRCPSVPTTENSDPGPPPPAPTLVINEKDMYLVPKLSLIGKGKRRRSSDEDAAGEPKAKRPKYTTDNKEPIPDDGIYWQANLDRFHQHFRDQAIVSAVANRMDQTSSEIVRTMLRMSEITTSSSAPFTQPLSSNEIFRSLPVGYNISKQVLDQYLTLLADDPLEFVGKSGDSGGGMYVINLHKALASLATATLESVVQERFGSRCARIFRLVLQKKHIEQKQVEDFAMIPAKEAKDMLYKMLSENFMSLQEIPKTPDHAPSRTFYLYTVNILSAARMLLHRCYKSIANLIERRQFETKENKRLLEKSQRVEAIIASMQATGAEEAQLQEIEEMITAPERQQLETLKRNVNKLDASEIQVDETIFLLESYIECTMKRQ
UniProt P78362: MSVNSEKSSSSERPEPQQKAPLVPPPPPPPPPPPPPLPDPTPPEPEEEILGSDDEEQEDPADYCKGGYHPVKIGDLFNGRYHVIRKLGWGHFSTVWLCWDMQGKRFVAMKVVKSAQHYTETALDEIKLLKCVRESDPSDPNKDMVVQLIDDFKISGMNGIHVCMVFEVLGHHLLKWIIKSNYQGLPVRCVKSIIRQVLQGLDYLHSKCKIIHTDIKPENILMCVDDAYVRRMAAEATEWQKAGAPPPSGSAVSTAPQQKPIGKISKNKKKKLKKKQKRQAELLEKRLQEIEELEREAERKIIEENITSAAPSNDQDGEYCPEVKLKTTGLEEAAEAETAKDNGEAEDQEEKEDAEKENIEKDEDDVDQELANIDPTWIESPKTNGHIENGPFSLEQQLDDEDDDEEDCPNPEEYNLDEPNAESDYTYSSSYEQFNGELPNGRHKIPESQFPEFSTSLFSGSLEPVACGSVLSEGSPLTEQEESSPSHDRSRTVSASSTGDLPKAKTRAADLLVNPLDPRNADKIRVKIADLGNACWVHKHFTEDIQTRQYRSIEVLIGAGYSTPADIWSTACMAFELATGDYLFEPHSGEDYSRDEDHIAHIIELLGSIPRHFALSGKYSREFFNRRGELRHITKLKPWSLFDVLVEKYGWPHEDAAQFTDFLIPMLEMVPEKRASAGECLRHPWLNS
UniProt P63167: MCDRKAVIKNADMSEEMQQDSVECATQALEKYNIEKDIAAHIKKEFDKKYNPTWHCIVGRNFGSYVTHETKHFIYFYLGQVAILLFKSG
UniProt P52294: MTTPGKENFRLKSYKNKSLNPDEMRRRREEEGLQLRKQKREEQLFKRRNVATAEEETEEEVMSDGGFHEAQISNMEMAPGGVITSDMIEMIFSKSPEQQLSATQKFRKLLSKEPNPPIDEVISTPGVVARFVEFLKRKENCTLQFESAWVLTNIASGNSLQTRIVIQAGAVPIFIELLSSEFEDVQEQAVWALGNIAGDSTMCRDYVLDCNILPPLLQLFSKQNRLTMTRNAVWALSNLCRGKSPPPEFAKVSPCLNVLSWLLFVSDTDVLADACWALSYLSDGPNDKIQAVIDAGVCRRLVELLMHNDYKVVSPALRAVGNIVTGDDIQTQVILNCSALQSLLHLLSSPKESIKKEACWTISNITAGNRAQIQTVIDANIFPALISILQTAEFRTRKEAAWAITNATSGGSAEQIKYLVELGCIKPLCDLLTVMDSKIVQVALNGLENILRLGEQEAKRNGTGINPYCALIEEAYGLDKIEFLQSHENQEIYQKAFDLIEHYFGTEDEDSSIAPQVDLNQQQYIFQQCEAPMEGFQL
UniProt O15131: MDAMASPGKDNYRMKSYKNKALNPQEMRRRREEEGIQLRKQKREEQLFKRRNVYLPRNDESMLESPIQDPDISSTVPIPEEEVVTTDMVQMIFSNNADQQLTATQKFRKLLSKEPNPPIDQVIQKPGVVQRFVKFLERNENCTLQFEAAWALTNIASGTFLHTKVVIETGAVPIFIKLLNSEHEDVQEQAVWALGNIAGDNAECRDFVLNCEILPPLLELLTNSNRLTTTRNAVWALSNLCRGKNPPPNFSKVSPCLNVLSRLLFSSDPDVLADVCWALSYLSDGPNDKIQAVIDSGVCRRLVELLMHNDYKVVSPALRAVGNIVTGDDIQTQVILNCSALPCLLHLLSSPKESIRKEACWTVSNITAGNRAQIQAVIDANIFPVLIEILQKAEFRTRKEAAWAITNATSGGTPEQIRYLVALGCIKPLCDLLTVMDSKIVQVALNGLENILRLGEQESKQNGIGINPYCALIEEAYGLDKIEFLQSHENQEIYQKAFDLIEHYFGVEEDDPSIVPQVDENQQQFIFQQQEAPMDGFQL
UniProt P37198: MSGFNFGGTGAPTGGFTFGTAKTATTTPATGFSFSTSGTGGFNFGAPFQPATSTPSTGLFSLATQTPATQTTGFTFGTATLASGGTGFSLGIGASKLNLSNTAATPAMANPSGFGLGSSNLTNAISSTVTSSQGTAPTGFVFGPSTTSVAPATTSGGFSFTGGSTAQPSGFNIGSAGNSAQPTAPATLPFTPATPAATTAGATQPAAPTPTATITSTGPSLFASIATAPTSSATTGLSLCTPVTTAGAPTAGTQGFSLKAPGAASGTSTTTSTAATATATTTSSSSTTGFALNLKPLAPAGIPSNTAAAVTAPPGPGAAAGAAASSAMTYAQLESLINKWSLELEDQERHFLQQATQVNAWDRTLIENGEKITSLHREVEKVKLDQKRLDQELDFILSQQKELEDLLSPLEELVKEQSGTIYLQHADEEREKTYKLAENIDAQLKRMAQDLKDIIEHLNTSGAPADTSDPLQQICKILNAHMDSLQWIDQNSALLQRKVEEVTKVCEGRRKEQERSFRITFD

| Substance | binding [1] | binding [3] | other results |
| --- | --- | --- | --- |
| LSM14A (from UniProt Q8ND56 1-463) | binds |  |  |
| LSM14B (from UniProt Q9BX40 1-385) | binds |  |  |
| MARF1 (from UniProt Q9Y4F3 1-1742) | binds |  | binding [2]: binds |
| POLR3C, an RNA polymerase III subunit (from UniProt Q9BUI4 1-534) |  | binds |  |
| RBBP6 (from UniProt Q7Z6E9 1-1792) |  |  | binding [4]: binds |
| SRPK2 (from UniProt P78362 1-688) |  |  | binding [4]: binds |
| XRN1 (from UniProt Q8IZH2 1-1706) | binds |  |  |
| dynein light chain LC8-type 1 (DYNLL1) (from UniProt P63167 1-89) | binds |  |  |
| karyopherin protein KPNA1 (from UniProt P52294 1-538) |  | binds |  |
| karyopherin protein KPNA5 (from UniProt O15131 1-539) |  | binds |  |
| karyopherin protein KPNA6 (from UniProt O60684 1-536) |  | binds |  |
| nucleoporin protein NUP62 (from UniProt P37198 1-522) |  | binds |  |
| protein phosphatase 2 regulatory subunit B alpha (PPP2R2A) (from UniProt P63151 1-447) |  |  | binding [2]: binds |
